In PubChem BioAssay AID1347423 (Functional Genomics Laboratory (NCATS/FGL), 2020):
Among all 52,000 sequences or so, about 210 (0.4%) were called active.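 Rule for the calls: active = gene whose silencing raises cell survival under the drug, median off-target-corrected z-score across its silencing RNAs 2 or more; inactive = the rest.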 The list shows a part of the results.

Experiment: Resistance to Poly (ADP-Ribose) Polymerase inhibitor: Gene Identification via Genome-wide siRNA Screen
Conditions: mouse BRCA2 R2336H ES cells, olaparib, CellTiter-Glo viability; stronger effect = higher value
Method in brief: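 Mouse BRCA2 R2336H ES cells were reverse-transfected with siRNA (20 nM final), treated at 48 h with 500 nM olaparib, and read by CellTiter-Glo after 72 h. Scores: MAD-based z per siRNA, median per gene, seed off-target correction.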
For GCAAGCUUUUUUGAAGCAGTT against Ppil4, the z-score was inactive: -1.76.
With GGCACGUGAUAAAGGGUUCTT against Pcdha7 the z-score was inactive: 2.05.
For GCUCUUCAAUAAUAUGUCATT against Cdh26, the z-score was inactive: 0.301.
With GGUUUCUUCAUUUGUUUGCTT against Syt2 the z-score was inactive: -1.09.
For GGACUGAAAUGUCUUAGACTT against Sepw1, the z-score was inactive: -0.0243.
With GGCCUAGACAUACAUGAAATT against Bnip3l the z-score was inactive: 2.36.
In the case of GGCCCAAACCUUAAAGUCCTT against Smyd4, the z-score is reported as inactive: -0.296.
In the case of GCAGCUGAAUACAGUCUGCTT against Nalp9c, the z-score is reported as inactive: -0.0273.
In the case of “GCGCAGAUACCUGUUUGUUTT against 1110020A09Rik”, the z-score is reported as inactive: 0.626.
For GGAUUCAGAGAAAGAAAACTT against Azi2, the z-score was inactive: 0.0998.
With GCCCGAUGACACGAGGAUUTT against Zfp39 the z-score was inactive: 1.33.
With CCUAUGGCCGACGAUCAUGTT against BC034834 the z-score was inactive: -1.38.
For GCACCUGGAGUACAUAAAATT against Sh2d1a, the z-score was inactive: -1.85.
With GGAACAAGCCAGGCACAUATT against Mrpplf4 the z-score was inactive: -0.227.
In the case of GGAAGACUUGAGAAAUCACTT against Coro1c, the z-score is reported as inactive: 1.8.
In the case of “GGCUUAUGACGAAUUAGUCTT against D130059P03Rik”, the z-score is reported as inactive: 0.338.
In the case of GGAAACGAUGACAUUUCAATT against Pnrc2, the z-score is reported as inactive: 0.254.
With CGAGCAACCACUGAUCAAGTT against Grap the z-score was inactive: -0.253.
In the case of GGACUCAGAUAUCUUUCAGTT against Adck1, the z-score is reported as inactive: -0.717.
In the case of CCUCUUCGGGAAAAUUCUATT against Dao1, the z-score is reported as inactive: -0.527.
In the case of GCUUCGGCAUCGAUCAGAUTT against Tlx2, the z-score is reported as inactive: -0.874.
With GGCACACUUGAGAAGACACTT against Cul5 the z-score was inactive: 2.51.
For GGUCCAGUGAAAUAAUAUCTT against Orc3l, the z-score was inactive: 0.619.
With CCAGCAAACUGUUGAUCCCTT against Oit3 the z-score was inactive: 0.739.
In the case of GGAAGAAAGAUUCUCACUGTT against Entpd3, the z-score is reported as inactive: -0.758.
With GGUGAAAGACCAAAGAAACTT against Gpatc1 the z-score was inactive: -1.15.
For “GAGCAGAGCCAAAUCAAAGTT against 1700023M09Rik”, the z-score was inactive: -0.566.
In the case of GGCCCUUUGACCUCAAGAATT against Myh7, the z-score is reported as inactive: 0.0809.
In the case of GGACAAACUAUGAAAACAGTT against Ube2v2, the z-score is reported as inactive: -0.794.
For GCUGGGCUUUCCAAGUUACTT against Tomm20, the z-score was inactive: 0.738.
With GGGACUUUAAGAAAAACUATT against Sparcl1 the z-score was inactive: 0.688.
In the case of GGAGGACUACAGAAAGCCUTT against Olfr1167, the z-score is reported as inactive: 1.62.
For GGAGGAUGAUGAGGAGGAUTT against Ppp1r1b, the z-score was inactive: -1.2.
For “GCCUAUUGGCCUGAUAUGUTT against A530099J19Rik”, the z-score was inactive: 1.37.
In the case of CCUGAUCAUGUUGAAGGAATT against Ktn1, the z-score is reported as inactive: -1.17.
For GGACUACUGAAUUCUUUUATT against Pvrl2, the z-score was inactive: 1.31.
With GCAUUAACUGCAUUGAGCATT against Nov the z-score was inactive: 0.365.
For GGAAAUCCUCAGACAAAUGTT against Pdc, the z-score was inactive: -0.4.
With GGGAAUGAGCUUUUGCCUATT against Akr1c18 the z-score was inactive: 2.19.
In the case of GGGAAGAUGUGAGAAACUGTT against Xpnpep2, the z-score is reported as inactive: 0.0956.
With GGUUGAAUCAGAAAAAUUCTT against Gbp4 the z-score was inactive: 0.75.
In the case of GGCGAUCAGAGUUCAGGUATT against Hps1, the z-score is reported as inactive: 1.4.
With “GGAGAAGGUUGCUGUAAAATT against 1700012A03Rik” the z-score was inactive: -0.567.
With GCUAAUCCCAACAUGCCUGTT against Pum1 the z-score was inactive: -0.399.
In the case of “GGAGUACAGAAGUAAUCUCTT against 2310065K24Rik”, the z-score is reported as inactive: -0.302.
With GGAUAUCAGUGAUGACCAUTT against Uckl1 the z-score was inactive: 1.44.
For GCCUUCACAGAAGAAGCAUTT against Doc2a, the z-score was inactive: -0.689.
With GGUUGACUAUACUGAAAAGTT against Bat2 the z-score was inactive: 0.649.
For GGUCCUGUUUCCAAGAGUATT against Cnih, the z-score was inactive: 0.0606.
For GCUUUUUAGAAUCUCCGAATT against Sel1h, the z-score was inactive: 0.168.
With GGAAACUGAGACAGGCCUUTT against Pgls the z-score was inactive: 0.111.
In the case of “GCGAUUCGUCUUCGAGUUCTT against 4930430E16Rik”, the z-score is reported as inactive: -0.275.
For GGCUCUGCGCAUCACCAAUTT against Nfasc, the z-score was inactive: 1.44.
For CGUGGUAGUGAAAAUUGAGTT against Xbp1, the z-score was inactive: -0.285.
In the case of “GGAUUCAUCAGACAUUAAGTT against 4930503L19Rik”, the z-score is reported as inactive: 0.595.
For CCCGGGUGCAAAACAUUCATT against Mlf1ip, the z-score was inactive: -1.34.
With GGAUAACACCACCAACUAUTT against Akap8l the z-score was inactive: 1.
With CGAUGUUGAGGGAUUAUCUTT against BC057893 the z-score was inactive: 0.475.
With GCUUCAGCUCAACUCCGCATT against Vps33a the z-score was inactive: 1.83.
For GGAAGUAAUCAAUUUGGUGTT against Epm2aip1, the z-score was inactive: 1.48.
In the case of GCAGAAUGAGUUCAGACGATT against Mgmt, the z-score is reported as inactive: -1.94.
In the case of CCUAUGGGUGUCUAUACCUTT against AI649392, the z-score is reported as inactive: 1.18.
With GGAGAAAAGGUGUUUCGACTT against Ddefl1 the z-score was inactive: 0.0769.
For GCAAAUAUAUGUUUGGCUGTT against Snap25, the z-score was inactive: 0.769.
For “GCAAUGGACACGAUUCUUATT against 1810036I24Rik”, the z-score was inactive: 0.88.
For GGUCCAUCAUGAGGUCUCUTT against Phkg2, the z-score was inactive: -0.13.
With GGCCUUGUAUCUCUUUACATT against Hdgf the z-score was inactive: 0.107.
With “GGUGAUGGAGAAGAGAAGATT against 3110001A13Rik” the z-score was inactive: -2.6.
For GGAGUCUUCUCAAUUUGACTT against Olfr1105, the z-score was inactive: -0.434.
For GCUCUUAGGACAGACAGACTT against Dnajb12, the z-score was inactive: -0.203.
In the case of “CCACUGAACUUAACCUUGGTT against B930041F14Rik”, the z-score is reported as inactive: 1.2.
In the case of GGUUGGCCUAAUAGUGCAUTT against Cbr1, the z-score is reported as inactive: 0.445.
With CCAUAUCCUUAACCUUAGGTT against Gdi1 the z-score was inactive: 0.299.
With GUUGAUGAUAGAUCGUCAATT against LOC382106 the z-score was inactive: 1.17.
With GGCCAGUCAAGGUUGGAUUTT against Gpr152 the z-score was inactive: -0.962.
With GGUCAUCAACGUGCUAGAGTT against Nucb1 the z-score was inactive: -1.24.
In the case of “GGAAUUCCACGGUAUUCACTT against A130007F10Rik”, the z-score is reported as inactive: 2.04.
For “GGCUAUGUUUCAGAAUAUGTT against 4933406N12Rik”, the z-score was inactive: -0.0316.
For GGUGUUUUAUAUGAACUGUTT against BC020077, the z-score was inactive: -0.66.
In the case of GGAAGAUCAAGGGACUCAUTT against Serpina3c, the z-score is reported as inactive: -0.281.
For GGCAUUGCUUUGCUGGUCUTT against Usmg5, the z-score was inactive: 1.34.
With “GGAGCGAGAGUAUCUAUUGTT against 2410019G02Rik” the z-score was inactive: -2.54.
With “GGAGGAAGAAACAGAACCATT against A930021G21Rik” the z-score was inactive: -2.36.
For “GCGUGUAUCUAGUGAAAUUTT against 4930524B15Rik”, the z-score was inactive: -1.68.
In the case of GGCUGAAACAAGAACGUGATT against Bat2, the z-score is reported as inactive: 0.976.
In the case of GGUGAAGCUGAAGAAGUACTT against Chst12, the z-score is reported as inactive: -0.734.
In the case of GGAGAAAAAGGGAAAGAAUTT against Dlx4, the z-score is reported as inactive: -1.52.
For GGGUACACUCCAUGCUUAGTT against Tcap, the z-score was inactive: 1.73.
In the case of GCCAGAAAGAUUCCUUCCUTT against Olfr1419, the z-score is reported as inactive: -1.47.
For GCUGUCAGACUAAAGAUAUTT against Mmd, the z-score was inactive: -0.0545.
With “GGAUAACUCCUUAUUUAACTT against 2310042E22Rik” the z-score was inactive: 0.797.
For “GGAACCUCCUUAUUCAAUGTT against 4930470D19Rik”, the z-score was inactive: -1.59.
For GGACCUGGUCACCAUCUUGTT against Tram2, the z-score was inactive: 0.873.
In the case of GCUGGGAAGGUGACGUAAUTT against AA959742, the z-score is reported as inactive: 0.647.
In the case of GGUCACCAAAGUGAAAACATT against Ndufa8, the z-score is reported as inactive: 0.655.
With “GGGAUAUUGUUUUUUACAGTT against B230114J08Rik” the z-score was inactive: -0.778.
With GGAUCAUAGUUACAAGGCUTT against L3mbtl2 the z-score was inactive: 0.583.
With “CCUACUUCCUCCAUUUAGGTT against 5033413D22Rik” the z-score was inactive: 1.42.
In the case of CCCACUCCGAUAUACUGCUTT against Olfr447, the z-score is reported as inactive: 0.895.
In the case of GGAACACCAUCAUCAGUCATT against Ephb2, the z-score is reported as inactive: -0.442.
In the case of GGCACAAUUUCUUUGAAUCTT against Ophn1, the z-score is reported as inactive: 0.000868.
For GGCCAUGAUUGAGAAGCUATT against Smtn, the z-score was inactive: -0.0798.
With “GGUGUCGAAGAUCACGUCATT against D10Bwg1364e” the z-score was inactive: -2.24.
For “GCAAAGAUCUUUGAGUAAGTT against 4632415L05Rik”, the z-score was inactive: -0.718.
